Results deposited as PubChem BioAssay AID743454 (Peter MacCallum Cancer Centre, 2014).
In all, the deposit lists about 18,000 reagents; shown is an unselected part. 450 of all reagents (2.5%) count as active. 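Single biological run; no consistent viability z cut-off exists, so the class columns, not z-scores, define the calls.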

- Test: 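Knock-downs lowering viability or raising caspase 3/7 activity in vorinostat-treated resistant cells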 (primary screen)
- Cell system: human HCT116-VR colon cancer cells, selected for vorinostat resistance
- Reagents: siRNA pool against human genes, 40 nM siRNA pool
- Duration: vorinostat for 24 h, read-out about 72 h after transfection
- Conditions: vorinostat at 2.5 µM final
- Measured: 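Two measures, CellTiter-Fluor viability and luminescent caspase 3/7 activity, each as fold change against same-plate mock wells, mean of duplicates, then screen-wide robust z-score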
- Reading the numbers: viability robust z-score: higher = more viable cells than screen typical; caspase robust z-score: higher = more caspase 3/7 activity than screen typical
- Active means: 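a knock-down is a hit when classed RV1 or RV2 for lowered viability, or CA1 or CA2 for caspase activation; those lethal without drug were dropped; hits were retested singly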

Depletion of ZNF585A resulted in: viability hit class no change; caspase hit class no change; viability robust z-score 0.16; caspase robust z-score 0.66; inactive. KAT2A showed viability hit class no change; caspase hit class no change; viability robust z-score 1.07; caspase robust z-score -0.9; inactive. With knock-down of FOXN3 the results were viability hit class no change; caspase hit class no change; viability robust z-score 0.4; caspase robust z-score -0.19; inactive. With knock-down of CHTOP the results were viability hit class no change; caspase hit class no change; viability robust z-score 0.44; caspase robust z-score -0.5; inactive. For IFT57, the entry reads viability hit class no change; caspase hit class no change; viability robust z-score 0.6; caspase robust z-score -0.74; inactive. After knock-down of YAF2 the results were viability hit class no change; caspase hit class no change; viability robust z-score 0.5; caspase robust z-score -0.81; inactive.

SYT14P1 showed viability hit class no change; caspase hit class no change; viability robust z-score 0.09; caspase robust z-score 0.04; inactive. After knock-down of IFITM1, the record shows viability hit class no change; caspase hit class no change; viability robust z-score -0.94; caspase robust z-score -0.3; inactive. Silencing of GPR108 came out at: viability hit class no change; caspase hit class no change; viability robust z-score -0.05; caspase robust z-score 1.18; inactive. TAMM41 showed viability hit class no change; caspase hit class no change; viability robust z-score -0.4; caspase robust z-score -0.61; inactive. Silencing of APOBEC4 came out at: viability hit class no change; caspase hit class no change; viability robust z-score -1.14; caspase robust z-score -0.51; inactive. After knock-down of OR51G2, the record shows viability hit class no change; caspase hit class no change; viability robust z-score 0.74; caspase robust z-score 0.73; inactive.

Depletion of NPIPA1 resulted in: viability hit class no change; caspase hit class no change; viability robust z-score 0.32; caspase robust z-score -0.92; inactive. Silencing of TRMU gave: viability hit class no change; caspase hit class no change; viability robust z-score -0.34; caspase robust z-score 0.87; inactive. SH3GLB1 gave viability hit class no change; caspase hit class no change; viability robust z-score -0.44; caspase robust z-score 1.28; inactive. Against RASEF the deposit lists viability hit class no change; caspase hit class no change; viability robust z-score 0.1; caspase robust z-score -0.64; inactive. Silencing of ZNF579 gave: viability hit class no change; caspase hit class no change; viability robust z-score 0.16; caspase robust z-score 1.08; inactive. Knock-down of FNDC5 gave: viability hit class no change; caspase hit class no change; viability robust z-score 0.36; caspase robust z-score -1.2; inactive.

TJP1 showed viability hit class no change; caspase hit class no change; viability robust z-score 1.25; caspase robust z-score 0.49; inactive. After knock-down of TGFBRAP1 the results were viability hit class no change; caspase hit class no change; viability robust z-score 0.57; caspase robust z-score -0.17; inactive. Silencing of NUDT11 resulted in: viability hit class no change; caspase hit class no change; viability robust z-score -2.56; caspase robust z-score 1.9; inactive.

Taken from above:
Under “Call”, TJP1 is entered as inactive
Value for YAF2 under “caspase hit class”: no change
